According to paper PMC6287014:
These are yes or no findings as the source states them, for the method shown. Binding seen in cells or lysates may run through a third protein. Binding calls can cover weak binding; strength is not graded here.

Key:
[1] = target: T1, endogenous DREAM (mouse (endogenous in mouse brain and N2a cells)) (UniProt Q9QXT8); experiment: co-IP; whole cell extracts (200 ug) of N2a cells; IP with 5 ug mouse monoclonal anti-DREAM 1B1, western blot with anti-PS2
T1 sequence: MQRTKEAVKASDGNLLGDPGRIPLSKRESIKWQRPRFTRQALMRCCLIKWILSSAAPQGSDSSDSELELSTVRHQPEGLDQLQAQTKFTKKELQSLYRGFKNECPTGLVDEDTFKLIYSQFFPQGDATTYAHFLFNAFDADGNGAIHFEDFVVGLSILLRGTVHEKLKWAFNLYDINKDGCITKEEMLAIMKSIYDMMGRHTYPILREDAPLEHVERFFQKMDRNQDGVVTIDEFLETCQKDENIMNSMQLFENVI

[2] = target: T1, endogenous DREAM (mouse (endogenous in mouse brain and N2a cells)); experiment: co-IP; whole cell extracts (200 ug) of mouse hippocampus and cerebral cortex; IP with 5 ug mouse monoclonal anti-DREAM 1B1, western blot with anti-PS2

- binding [1]: binds
- binding [2]: binds
Substance: C-terminal PS2 fragment (Ct-PS2), endogenous (domain or fragment)
